{"source": "patent US6894049B1", "about": "“Platinum complexes as antitumor agents” (AnorMED, Inc., priority 2000, dated 2005)", "test": "Aqueous solubility at ambient conditions", "format": "physicochemical", "note": "Some of these results come from one statement about several compounds together. At least one structure is not confirmed: it was looked up by name or label, or the drawing left a doubt."}
{"compound": "Cc1ncc[n+]([Pt-2]([NH3+])([OH])([OH])([Cl])[Cl])c1C", "note": "[Example 13, (OC-6-43)-ammninedichlorodihydroxo-(2.3dimethypyrazine)platinum(IV)]", "values": [{"measurement": "Aqueous Solubility", "value": "substantially higher solubility than cisplatin"}]}
